Data as given in PubChem BioAssay AID504774 (Drosophila RNAi Screening Center, 2011)
In all, the deposit lists about 23,000 reagents; this is an unselected part of those that have a named target and a result. 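Values are quantile-normalised luminescence on an arbitrary scale; higher means more cells surviving MMS.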 Reagents against one gene are numbered here. A plus sign joins genes that one reagent is predicted to hit. No sequences are given here.

- Aim: 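Knock-downs that shift viability of MMS-exposed cells relative to untreated ones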 (primary screen)
- Cells: Drosophila Kc167 cells
- Reagents: long dsRNA against Drosophila genes, about 0.25 µg dsRNA per well
- Time to read-out: about 6 days: 3 days knock-down, then 3 days with or without MMS
- Challenge: methyl methanesulphonate 0.004% (w/v) for 3 days after knock-down
- Read-out: 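ATP-dependent luminescence as a measure of live cells in MMS-exposed wells, quantile normalised within each plate, with replicate values also given as a mean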
- Reading the numbers: mean viability with MMS and viability with MMS: higher = more surviving cells after MMS

gene | dsRNA no. | mean viability with MMS | viability with MMS, replicate 1 | viability with MMS, replicate 2
CG14111 | 1 | 3.59e6 | 3.98e6 | 4.12e6
CG14052 | 1 | 3.31e6 | 3.72e6 | 3.83e6
CG14052 | 2 | 3.54e6 | 3.81e6 | 4.22e6
CG6788 + CR32496 | 1 | 3.58e6 | 4.11e6 | 3.98e6
thw (thawb) | 1 | 3.54e6 | 4.06e6 | 3.97e6
RpL40 (Ribosomal protein L40) | 1 | 2.97e6 | 3.31e6 | 3.38e6
Or83c (Odorant receptor 83c) | 1 | 3.73e6 | 4.18e6 | 4.22e6
RpL23A (Ribosomal protein L23A) | 1 | 3.08e6 | 3.64e6 | 3.64e6
RpL23A (Ribosomal protein L23A) | 2 | 3.74e6 | 4.26e6 | 4.12e6
CG42540 | 1 | 3.19e6 | 3.67e6 | 3.71e6
CG42540 | 2 | 3.45e6 | 3.91e6 | 3.91e6
CG42540 | 3 | 3.00e6 | 3.51e6 | 3.51e6
CG42540 | 4 | 3.61e6 | 4.16e6 | 4.03e6
D2hgdh (D-2-hydroxyglutaric acid dehydrogenase) | 1 | 3.49e6 | 4.03e6 | 3.89e6
alka (alkaliphile) | 1 | 3.46e6 | 3.90e6 | 3.97e6
CG12934 | 1 | 3.31e6 | 3.74e6 | 3.81e6
CG32354 | 1 | 3.68e6 | 4.14e6 | 4.21e6
CG32354 | 2 | 3.65e6 | 3.88e6 | 3.74e6
CG32354 | 3 | 3.59e6 | 4.01e6 | 4.09e6
CG15185 | 1 | 3.58e6 | 4.06e6 | 4.07e6
CG10029 | 1 | 3.42e6 | 3.79e6 | 3.98e6
Npc2d (Niemann-Pick type C-2d) | 1 | 3.47e6 | 3.93e6 | 3.98e6
Naa20B (N(alpha)-acetyltransferase 20 B) | 1 | 3.56e6 | 4.08e6 | 4.01e6
CG13390 | 1 | 3.61e6 | 4.07e6 | 4.12e6
pav (pavarotti) | 1 | 3.43e6 | 3.89e6 | 3.91e6
hiro (highroad) | 1 | 3.32e6 | 3.81e6 | 3.76e6
foxo (forkhead box, sub-group O) | 1 | 2.83e6 | 3.60e6 | 3.60e6
foxo (forkhead box, sub-group O) | 2 | 3.71e6 | 4.17e6 | 4.27e6

Part of the list above in another layout.
{"gene": "CG10029", "dsRNA no.": 1, "mean viability with MMS": 3.42e6, "viability with MMS, replicate 1": 3.79e6, "viability with MMS, replicate 2": 3.98e6}
{"gene": "Npc2d (Niemann-Pick type C-2d)", "dsRNA no.": 1, "mean viability with MMS": 3.47e6, "viability with MMS, replicate 1": 3.93e6, "viability with MMS, replicate 2": 3.98e6}
{"gene": "Naa20B (N(alpha)-acetyltransferase 20 B)", "dsRNA no.": 1, "mean viability with MMS": 3.56e6, "viability with MMS, replicate 1": 4.08e6, "viability with MMS, replicate 2": 4.01e6}
{"gene": "CG13390", "dsRNA no.": 1, "mean viability with MMS": 3.61e6, "viability with MMS, replicate 1": 4.07e6, "viability with MMS, replicate 2": 4.12e6}
{"gene": "pav (pavarotti)", "dsRNA no.": 1, "mean viability with MMS": 3.43e6, "viability with MMS, replicate 1": 3.89e6, "viability with MMS, replicate 2": 3.91e6}
